Results taken from PubChem BioAssay AID214 (DTP/NCI, 2004).
The list shows only some results of the screen, not a fair sample: it is rich in T/C values a quarter to a half above the control, in often repeated tests (any T/C) and in doses without a T/C. Further doses and runs are listed elsewhere. T/C is the treated group as % of the vehicle group. Schedules are NCI's codes, read here as Q, the interval in days (D) or hours (H), X, the number of doses. Some T/C values are followed by the survivors on the day toxicity was checked, most often the fifth; where none is given, no animal had died by that day. Some entries hold several experiments; their values stand side by side, smallest first. Counts like (3×) give the number of equal values in this list. Some doses have a count of surviving animals in place of a T/C: the source holds a T/C of zero for them, seemingly a mark for toxic or unscored doses. Counts of survivors are from the toxicity check (mostly the fifth day) where no day follows; animals may have died later.

Tested on: B6C3F1 mice, colon carcinoma 38 s.c., T/C
Assay: NCI In Vivo Anticancer Drug Screen. Data for tumor model Colon Carcinoma 38 (subcutaneous) in B6C3F1 mice
Settings: higher T/C = larger tumour
Protocol: The antitumor activity of compounds was measured in mice bearing transplantable tumors. Survival or tumor size were measured and the results are expressed as the measurement made in the treated group (T) divided by the measurement made in the vehicle treated control group (C). The tumor model used in this assay is Colon Carcinoma 38 (subcutaneous) in B6C3F1 mice

[1] = T/C endpoint: median tumor weight (est.), dose: 50.0 mg/kg/injection, schedule: Q07DX002 (ip), vehicle: Klucel (hydroxypropylcellulose) (HPC), evaluated on day 20
[2] = T/C endpoint: median tumor weight (est.), dose: 200.0 mg/kg/injection, schedule: Q07DX002 (ip), vehicle: Klucel (hydroxypropylcellulose) (HPC)
[3] = T/C endpoint: median tumor weight (est.), dose: 400.0 mg/kg/injection, schedule: Q07DX002 (ip), vehicle: Klucel (hydroxypropylcellulose) (HPC)
[4] = T/C endpoint: median tumor weight (est.), dose: 100.0 mg/kg/injection, schedule: Q07DX002 (ip), vehicle: saline with Tween-80, evaluated on day 20
[5] = T/C endpoint: median tumor weight (est.), dose: 400.0 mg/kg/injection, schedule: Q07DX002 (ip), vehicle: saline with Tween-80
[6] = T/C endpoint: median tumor weight (est.), dose: 200.0 mg/kg/injection, schedule: Q07DX002 (ip), vehicle: saline

`O=C(O)Cc1cccc2c(=O)cc(-c3ccccc3)oc12` was tested, and the T/C (T/C endpoint: median tumor weight (est.), dose: 63.0 mg/kg/injection, schedule: Q07DX002 (iv), vehicle: sodium bicarbonate, evaluated on day 20) was 139 % of control, the T/C (T/C endpoint: median tumor weight (est.), dose: 84.0 mg/kg/injection, schedule: Q07DX002 (iv), vehicle: sodium bicarbonate, evaluated on day 20) was 145 % of control [9 of 10 alive on day 20] and the T/C (T/C endpoint: median tumor weight (est.), dose: 112.0 mg/kg/injection, schedule: Q07DX002 (ip), vehicle: sodium bicarbonate, evaluated on day 20) was 131 % of control. The T/C (T/C endpoint: median tumor weight (est.), dose: 150.0 mg/kg/injection, schedule: Q07DX002 (ip), vehicle: sodium bicarbonate, evaluated on day 20) was 130 % of control, the survivor count (T/C endpoint: median tumor weight (est.), dose: 267.0 mg/kg/injection, schedule: Q07DX002 (iv), vehicle: clinical formulation) was 6 of 10 on day 20 and the survivor count (T/C endpoint: median tumor weight (est.), dose: 356.0 mg/kg/injection, schedule: Q07DX002 (ip), vehicle: clinical formulation) was 0 of 10 on day 20. The survivor count (T/C endpoint: median tumor weight (est.), dose: 356.0 mg/kg/injection, schedule: Q07DX002 (iv), vehicle: clinical formulation) was 1 of 10 on day 20, the survivor count (T/C endpoint: median tumor weight (est.), dose: 474.0 mg/kg/injection, schedule: Q07DX002 (ip), vehicle: clinical formulation) was 0 of 10 on day 20 and the survivor count (T/C endpoint: median tumor weight (est.), dose: 474.0 mg/kg/injection, schedule: Q07DX002 (ip), vehicle: sodium bicarbonate) was 6 of 10 on day 20. The survivor count (T/C endpoint: median tumor weight (est.), dose: 474.0 mg/kg/injection, schedule: Q07DX002 (iv), vehicle: clinical formulation) was 1 of 10 on day 20 and the T/C (T/C endpoint: optimum tumor weight change, dose: 102.0 mg/kg/injection, schedule: Q07DX002 (ip), vehicle: water, evaluated on day 60) was 130 % of control.
In the case of `S=c1nc[nH]c2nc[nH]c12`, the T/C (T/C endpoint: median tumor weight (est.), dose: 25.0 mg/kg/injection, schedule: Q07DX002 (ip), vehicle: Klucel (hydroxypropylcellulose) (HPC), evaluated on day 20) is reported as 18, 26, 39, 54, 58, 79, 98, 107, 124, 127 % of control, the survivor count (T/C endpoint: median tumor weight (est.), dose: 25.0 mg/kg/injection, schedule: Q07DX002 (ip), vehicle: Klucel (hydroxypropylcellulose) (HPC)) is reported as 3 of 10 on day 20 and the T/C [1] is reported as 16 [7 of 10 alive on day 20], 16 [9 of 10 alive on day 20], 20, 27, 38, 40, 44, 46 [9 of 10 alive on day 20], 76, 82 % of control. For the same compound, the survivor count (T/C endpoint: median tumor weight (est.), dose: 50.0 mg/kg/injection, schedule: Q07DX002 (ip), vehicle: Klucel (hydroxypropylcellulose) (HPC)) was 5 of 9 on day 20, the T/C (T/C endpoint: median tumor weight (est.), dose: 100.0 mg/kg/injection, schedule: Q07DX002 (ip), vehicle: Klucel (hydroxypropylcellulose) (HPC), evaluated on day 20) was 3 [7 of 10 alive on day 20], 4, 5 [7 of 10 alive on day 20], 6, 9, 28 % of control and the survivor count (T/C endpoint: median tumor weight (est.), dose: 100.0 mg/kg/injection, schedule: Q07DX002 (ip), vehicle: Klucel (hydroxypropylcellulose) (HPC)) was 1 of 10 on day 20, 2 of 10 on day 20, 4 of 10 on day 20, 6 of 10 on day 20. For the same compound, the T/C (T/C endpoint: median tumor weight (est.), dose: 200.0 mg/kg/injection, schedule: Q07DX002 (ip), vehicle: Klucel (hydroxypropylcellulose) (HPC), evaluated on day 20) was 5 [7 of 10 alive on day 20] and 34 % of control [7 of 10 alive on day 20], the survivor count [2] was 0 of 10 on day 20, 1 of 10 on day 20, 3 of 10 on day 20, 4 of 10 on day 20 and the survivor count [3] was 0 of 10 on day 20, 1 of 9 on day 20, 2 of 10 on day 20, 4 of 10 on day 20.
For `O=C1[C@H]2CCC[C@H]2[C@H]2CCC[C@@H]12`, the T/C (T/C endpoint: median tumor weight (est.), dose: 12.5 mg/kg/injection, schedule: Q07DX002 (ip), vehicle: saline with Tween-80, evaluated on day 20) was 129 and 131 % of control, the T/C [4] was 139 % of control and the survivor count [5] was 6 of 10 on day 20.
`Nc1ccc2ccc(NS(=O)(=O)N3CCCCC3)cc2c1` was tested, and the T/C [4] was 126 % of control, the survivor count (T/C endpoint: median tumor weight (est.), dose: 800.0 mg/kg/injection, schedule: Q07DX002 (ip), vehicle: saline with Tween-80) was 5 of 10 on day 20 and the survivor count (T/C endpoint: median tumor weight (est.), dose: 1600.0 mg/kg/injection, schedule: Q07DX002 (ip), vehicle: saline with Tween-80) was 0 of 10 on day 20.
`CCCCCCCCCCCCCCCCCCOCC(COP(=O)([O-])OCC[N+](C)(C)C)OC` (stereo not given) was tested, and the survivor count [6] was 0 of 10 on day 20.
With `CC1CCC(NC(=O)N(CCCl)N=O)CC1` (stereo not given) the T/C (T/C endpoint: median tumor weight (est.), dose: 4.0 mg/kg/injection, schedule: Q07DX002 (ip), vehicle: saline with Tween-80, evaluated on day 20) was 76, 81, 84, 91 (2×), 100, 108, 129, 139 % of control, the T/C (T/C endpoint: median tumor weight (est.), dose: 8.0 mg/kg/injection, schedule: Q07DX002 (ip), vehicle: saline with Tween-80, evaluated on day 20) was 61, 67 [9 of 10 alive on day 20], 78, 89, 97, 103 [9 of 10 alive on day 20], 116, 121, 227 % of control and the T/C (T/C endpoint: median tumor weight (est.), dose: 16.0 mg/kg/injection, schedule: Q07DX002 (ip), vehicle: saline with Tween-80, evaluated on day 20) was 18, 20, 40, 54, 64, 70, 73, 81, 145 % of control. For the same compound, the T/C (T/C endpoint: median tumor weight (est.), dose: 32.0 mg/kg/injection, schedule: Q07DX002 (ip), vehicle: saline with Tween-80, evaluated on day 20) was 7, 12, 13, 21, 33, 63 (2×), 129 % of control, the survivor count (T/C endpoint: median tumor weight (est.), dose: 32.0 mg/kg/injection, schedule: Q07DX002 (ip), vehicle: saline with Tween-80) was 4 of 10 on day 20 and the survivor count (T/C endpoint: median tumor weight (est.), dose: 64.0 mg/kg/injection, schedule: Q07DX002 (ip), vehicle: Klucel (hydroxypropylcellulose) (HPC)) was 2 of 10 on day 20. For the same compound, the T/C (T/C endpoint: median tumor weight (est.), dose: 64.0 mg/kg/injection, schedule: Q07DX002 (ip), vehicle: saline with Tween-80, evaluated on day 20) was 28 [9 of 10 alive on day 20] and 42 % of control [8 of 10 alive on day 20] and the survivor count (T/C endpoint: median tumor weight (est.), dose: 64.0 mg/kg/injection, schedule: Q07DX002 (ip), vehicle: saline with Tween-80) was 0 of 10 on day 20, 1 of 10 on day 20, 2 of 10 on day 20, 4 of 10 on day 20, 5 of 10 on day 20, 6 of 10 on day 20.
In the case of `O=C(O)c1cc(Cc2ccc(O)c(C(=O)O)c2)ccc1O` (tested in a mixture with another compound), the survivor count (T/C endpoint: median tumor weight (est.), dose: 800.0 mg/kg/injection, schedule: Q07DX002 (ip), vehicle: Klucel (hydroxypropylcellulose) (HPC)) is reported as 2 of 10 on day 20.
With `CCN(CC)CCOCCO` the T/C (T/C endpoint: median tumor weight (est.), dose: 200.0 mg/kg/injection, schedule: Q07DX002 (ip), vehicle: suspension in saline, evaluated on day 20) was 125 % of control, the survivor count (T/C endpoint: median tumor weight (est.), dose: 400.0 mg/kg/injection, schedule: Q07DX002 (ip), vehicle: suspension in saline) was 5 of 10 on day 20 and the survivor count (T/C endpoint: median tumor weight (est.), dose: 800.0 mg/kg/injection, schedule: Q07DX002 (ip), vehicle: suspension in saline) was 0 of 10 on day 20.
In the case of `CC[C@@H](C)[C@@H]1NC(=O)C(NC(=O)C(CC(C)C)N(C)C(=O)C2CCCN2C(=O)C(C)O)C(C)OC(=O)C(Cc2ccc(OC)cc2)N(C)C(=O)C2CCCN2C(=O)C(CC(C)C)NC(=O)C(C)C(=O)C(C(C)C)OC(=O)C[C@H]1O` (stereo not given in full), the T/C (T/C endpoint: median tumor weight (est.), dose: 75.0 micrograms/kg/injection, schedule: Q07DX002 (ip), vehicle: distilled water + alcohol, evaluated on day 20) is reported as 134 % of control [9 of 10 alive on day 20], the T/C (T/C endpoint: median tumor weight (est.), dose: 150.0 micrograms/kg/injection, schedule: Q07DX002 (ip), vehicle: distilled water + alcohol, evaluated on day 20) is reported as 131 % of control and the T/C (T/C endpoint: median tumor weight (est.), dose: 300.0 micrograms/kg/injection, schedule: Q07DX002 (ip), vehicle: distilled water + alcohol, evaluated on day 20) is reported as 126 % of control [9 of 10 alive on day 20]. For the same compound, the survivor count (T/C endpoint: median tumor weight (est.), dose: 1200.0 micrograms/kg/injection, schedule: Q07DX002 (ip), vehicle: distilled water + alcohol) was 1 of 10 on day 20.
With `CC(C)NCC(O)COc1ccc(O)c(O)c1` (stereo not given) the survivor count [6] was 6 of 10 on day 20, the survivor count (T/C endpoint: median tumor weight (est.), dose: 400.0 mg/kg/injection, schedule: Q07DX002 (ip), vehicle: saline) was 0 of 10 on day 20 and the survivor count (T/C endpoint: median tumor weight (est.), dose: 800.0 mg/kg/injection, schedule: Q07DX002 (ip), vehicle: saline) was 0 of 10 on day 20.
`O=C(CCCN1CCC(C(O)c2ccc(F)cc2)CC1)c1ccc(F)cc1` (stereo not given) was tested, and the T/C (T/C endpoint: median tumor weight (est.), dose: 6.25 mg/kg/injection, schedule: Q07DX002 (ip), vehicle: saline with Tween-80, evaluated on day 20) was 126 % of control, the survivor count (T/C endpoint: median tumor weight (est.), dose: 25.0 mg/kg/injection, schedule: Q07DX002 (ip), vehicle: saline with Tween-80) was 5 of 10 on day 20 and the survivor count (T/C endpoint: median tumor weight (est.), dose: 50.0 mg/kg/injection, schedule: Q07DX002 (ip), vehicle: saline with Tween-80) was 0 of 10 on day 20. For the same compound, the survivor count (T/C endpoint: median tumor weight (est.), dose: 100.0 mg/kg/injection, schedule: Q07DX002 (ip), vehicle: saline with Tween-80) was 0 of 10 on day 20, the survivor count (T/C endpoint: median tumor weight (est.), dose: 200.0 mg/kg/injection, schedule: Q07DX002 (ip), vehicle: saline with Tween-80) was 0 of 10 on day 20 and the survivor count [5] was 0 of 10 on day 20.
With `Cc1cc(Nc2ccc3c(c2)OCO3)c2cc3c(cc2n1)OCO3` the T/C [1] was 136 % of control, the survivor count [2] was 6 of 10 on day 20 and the survivor count [3] was 0 of 10 on day 20, 5 of 10 on day 20, 6 of 10 on day 20.
